In PubChem BioAssay AID292 (DTP/NCI, 2004) one finds T/C and survivor count data, which are given here for three compounds.

The list does not hold the whole screen: its compounds were picked by chemical class. Not every dose and run of a compound is shown. T/C: endpoint of the treated group in % of that of the vehicle group. Some entries give survivors of the animals treated and no T/C: the source holds a T/C of zero for them, seemingly a mark for toxic or unscored doses. Some doses without a T/C left all or most animals alive at the check, yet need not have been tolerated: the source hardly ever lists a survival T/C far under the control, and the zero likely stands for such cases as well. Survivors were counted at the toxicity check, usually on the fifth day, unless a day is given; later deaths do not show. Schedule codes are those of the source, taken here to give the interval after Q, in days (D) or hours (H), and the number of doses after X. Where survival is the endpoint, the PubChem record calls one and a half times the control and up active, and a quarter to a half above the control has no call in these data; cut-offs in other NCI protocols can differ. Some T/C values carry the count of animals alive at the toxicity check (mostly the fifth day); without a count or a note in brackets, all were alive then.

For the test, the system named is B6C3F1 mice, ip Sarcoma M5076, median survival T/C. The test can be described thus: NCI In Vivo Anticancer Drug Screen. Data for tumor model Sarcoma M5076 (intraperitoneal) in B6C3F1 mice. As to conditions: T/C endpoint: median survival time, schedule: Q04DX004 (ip), higher T/C = longer survival. The protocol:
The antitumor activity of compounds was measured in mice bearing transplantable tumors. Survival or tumor size were measured and the results are expressed as the measurement made in the treated group (T) divided by the measurement made in the vehicle treated control group (C). The tumor model used in this assay is Sarcoma M5076 (intraperitoneal) in B6C3F1 mice

The mark [1] stands for this setting: dose: 25.0 mg/kg/injection, vehicle: saline with Tween-80.
The mark [2] stands for this setting: dose: 50.0 mg/kg/injection, vehicle: saline with Tween-80.
The mark [3] stands for this setting: dose: 100.0 mg/kg/injection, vehicle: saline with Tween-80.
Where [4] appears, read: dose: 200.0 mg/kg/injection, vehicle: saline with Tween-80.
Where [5] appears, read: dose: 400.0 mg/kg/injection, vehicle: saline with Tween-80.

On to `O=c1oc(NCCCl)nc2ccccc12`, for which the T/C reads like this: under setting [1], 106 % of control; under setting [2], 111 % of control; under setting [3], 107 % of control [9 of 10 alive on day 14]; under setting [4], 104 % of control; under setting [5], 102 % of control.

As for `NCCC(N)CSP(=O)(O)O` (stereo not given), the T/C under setting [1] was 94 % of control, the T/C under setting [2] was 97 % of control, the T/C under setting [3] is 94 % of control and the T/C under setting [4] is 92 % of control. Further, the survivor count under setting [5] is 10 of 10 on day 14.

For the compound `ClP1(Cl)=NP(Cl)(Cl)=NP(Cl)(Cl)=NP(Cl)(Cl)=N1`, the T/C by setting is: (dose: 75.0 mg/kg/injection, vehicle: Klucel (hydroxypropylcellulose) (HPC)) 100 % of control; (dose: 150.0 mg/kg/injection, vehicle: Klucel (hydroxypropylcellulose) (HPC)) 101 % of control [9 of 10 alive on day 14]; (dose: 300.0 mg/kg/injection, vehicle: Klucel (hydroxypropylcellulose) (HPC)) 97 % of control; (dose: 600.0 mg/kg/injection, vehicle: Klucel (hydroxypropylcellulose) (HPC)) 100 % of control; (dose: 1200.0 mg/kg/injection, vehicle: Klucel (hydroxypropylcellulose) (HPC)) 93 % of control.
